Assay results published in paper PMC11913716.
Results are given in words; binding and its absence hold for the method and conditions named. Binding seen in cells or lysates may run through a third protein. Some results given as binding are weak or reduced against the parent protein; the word gives no strength. For some assays here: Where a sequence is shown, tags or fusion partners need not be part of it.

By UniProt entry, the sequences of proteins in these tests, tags left out.
UniProt Q9Y6K9: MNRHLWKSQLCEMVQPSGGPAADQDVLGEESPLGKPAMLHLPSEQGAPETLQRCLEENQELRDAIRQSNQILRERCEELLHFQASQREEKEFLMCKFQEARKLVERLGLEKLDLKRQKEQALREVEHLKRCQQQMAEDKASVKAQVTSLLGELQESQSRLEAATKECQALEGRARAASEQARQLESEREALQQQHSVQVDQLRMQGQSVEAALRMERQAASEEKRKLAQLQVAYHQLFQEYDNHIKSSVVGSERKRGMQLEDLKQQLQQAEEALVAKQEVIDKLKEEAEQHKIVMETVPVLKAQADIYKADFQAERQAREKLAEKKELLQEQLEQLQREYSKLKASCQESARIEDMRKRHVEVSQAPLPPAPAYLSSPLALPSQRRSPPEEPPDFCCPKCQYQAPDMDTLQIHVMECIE

Key:
[1] = target: HAdV-C5 E1B-55K wt expressed from pcDNA3 (HAdV-C5 (human adenovirus type C5)) (UniProt P03243); experiment: co-IP; H1299 co-transfected with E1B-55K and Flag-tagged IKK proteins, 48 h; immunoprecipitation with α-E1B-55K 2A6, blot with α-Flag M2
Flag-tagged IKKα (human) = target: T1, Flag-tagged IKKα (human) (UniProt O15111); experiment: co-IP; H1299 co-transfected with wt or mutant E1B-55K and Flag-tagged IKKα, 48 h; immunoprecipitation with α-Flag M2, blot with α-E1B-55K (7C11 or 2A6)
T1 sequence: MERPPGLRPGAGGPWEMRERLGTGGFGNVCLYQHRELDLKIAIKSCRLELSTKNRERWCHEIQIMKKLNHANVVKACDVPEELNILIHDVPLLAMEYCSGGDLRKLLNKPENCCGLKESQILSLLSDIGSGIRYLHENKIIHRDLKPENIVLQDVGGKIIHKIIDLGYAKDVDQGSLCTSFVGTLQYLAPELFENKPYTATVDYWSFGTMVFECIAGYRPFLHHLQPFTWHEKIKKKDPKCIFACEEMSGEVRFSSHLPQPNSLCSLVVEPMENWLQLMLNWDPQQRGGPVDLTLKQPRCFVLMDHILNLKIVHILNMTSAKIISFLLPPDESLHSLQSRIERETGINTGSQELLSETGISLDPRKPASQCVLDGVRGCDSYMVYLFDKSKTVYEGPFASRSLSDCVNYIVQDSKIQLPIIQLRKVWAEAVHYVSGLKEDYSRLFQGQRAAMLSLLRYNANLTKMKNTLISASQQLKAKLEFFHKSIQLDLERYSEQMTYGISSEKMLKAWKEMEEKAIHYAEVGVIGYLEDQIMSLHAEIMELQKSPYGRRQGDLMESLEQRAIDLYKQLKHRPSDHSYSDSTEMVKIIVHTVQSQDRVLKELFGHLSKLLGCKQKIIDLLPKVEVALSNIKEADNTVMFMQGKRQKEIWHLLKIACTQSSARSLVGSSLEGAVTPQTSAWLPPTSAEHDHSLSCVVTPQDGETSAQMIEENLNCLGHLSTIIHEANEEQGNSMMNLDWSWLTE

Row | Substance | binding [1] | binding (Flag-tagged IKKα (human))
1 | Flag-tagged NEMO (from UniProt Q9Y6K9 1-419) | no binding | –
2 | HAdV-C5 E1B-55K wt expressed from pcDNA3 (from UniProt P03243 1-496) | – | binds
